In PubChem BioAssay (NCATS):
Inconclusive means that the source gave no clear call. Such entries were picked first, then a sample of the others. Potencies beside an inconclusive call are fits to weak or partial responses and may not hold up. Active and inactive are the calls of the source. Calls follow the shape of the dose curve; as a rule, active = well fitted cell-killing curve with a large enough effect; inconclusive = small, poorly fitted or top-dose-only effect; inactive = flat fitted curve, though single readings scatter. Numbered stars: 1 amine (or outer) side, 2 acyl side, 3 side chain; on linkers, the order of the positions; unused ones are H or OH. Bridge positions count the residues as written; N and C are the ends. Square brackets hold non-standard residues; d marks the D form. Peptide text beside a SMILES is read from it. * marks the point of attachment. ξ: configuration not given here. X4 = C[C@@H](Oc1ccc([C@H](N[*:1])C(=O)[*:2])cc1)[C@]1(/C=C\C(=O)[*:3])CO1; d(aIle) = CC[C@H](C)[C@@H](N)C(=O)O; X3 = CC(C)[C@@H](O)C(C)C(=O)*; ξNMeF = CNC(Cc1ccccc1)C(=O)O; ξT = CC(O)C(N)C(=O)O; ξS = NC(CO)C(=O)O

test: SDT Cancer Cell Toxicity qHTS against the NCATS CANVASS Library (AID 1347365); details: SDT dog glioma viability, ATP luminescence, 72 h; series mostly up to 46.1 µM; activity change, negative = cytotoxicity: at the top concentration; also: nearly all actives have a fitted effect of over 60% in size
Text: Natural products and their derivatives continue to be wellsprings of nascent therapeutic potential. However, many laboratories have limited resources for biological evaluation, leaving their previously isolated or synthesized compounds largely or completely untested. To address this issue, the Canvass library of natural products was assembled (https://tripod.nih.gov/canvass), in collaboration with academic and industry researchers, for quantitative high-throughput screening (qHTS) across a diverse set of cell-based and biochemical assays. The pure (>85% purity by liquid chromatography/mass spectrometry [LC/MS]) Canvass library of 346 natural products were submitted by 45 academic laboratories and companies around the world. We collected pure natural products to circumvent deconvolution and structure elucidation due to time and resource limitations. The library was formatted into 1536-well plates and evaluated in 50 qHTS (in an 11-pnt concentration series) bioassays with broad scope of disease-relevant mechanisms. The resulting data set from 50 different assays was then systematically analyzed to identify overall trends and specific natural products with interesting biological activities. Reported herein are the results of each individual qHTS and their corresponding assay protocol. This assay uses ATP (luminescence) content to measure the cytotoxiciy of compounds on SDT dog glioma cancer cell line. National Center for Advancing Translational Sciences (NCATS), Rockville, MD National Institute of Health (NIH), Bethesda, Maryland
Cancer Cell Toxicity qHTS protocol: for cell lines G06, J3T, and SDT. 1. In a 1536 well, tissue culture treated white solid bottom plates (Corning 7494), 5 uL of SDT cell solution (final concentration of 500 cells / well) was dispensed using the Multidrop Combi dispenser (Thermo Fisher Scientific) into columns 2, 3, 5-48. 2. Control and Compounds were pin transferred (~23 nL volume) to the assay plates via Wako Pin-tool (Wako Automation, Richmond VA) equipped with a 1536 pin head. The compounds were transferred to columns 5-48 resulting in a final concentration ranging from 0.17 nM to 103 uM. Dose response titration of Bortezomib was pin transferred into column 2 (1mM; 1:2 dilution; 16 points) resulting to a final concentration range of 0.1 nM - 4.6 uM. 3. The assay plates were further incubated in the at 37C, 5% CO2, 95% Rh for 72 hr. 4. After incubation, 3 uL of CellTiterGlo reagent (Promega) was added to the assay plates (column 1-48, rows 1-32) and centrifuged for 15 sec at 1000 rpm to remove bubbles. 5. Luminescence signal was acquired via the ViewLux plate reader (PerkinElmer) using a clear emission filter, 2 sec exposure, and 1x binning settings.
% is scaled to controls: 0 for no effect and ±100 for the full control effect; potency is read from the fitted curve at half-maximal effect.

Row | SMILES | Potency | activity change, negative = cytotoxicity
1 | NCCc1c[nH]c2ccccc12 | inconclusive: 37.2 µM [cytotoxic, single point] | 
2 | CO[C@@]12c3c(C)cc(O)c4c(=O)occ(c34)C(=O)[C@@H]1[C@]13COC(=O)c4c(O)cc(C)c(c41)C(=O)[C@H]2[C@@H]3OC(C)=O |  | inactive: 13.8%
3 | C=C(C)[C@H]1C(=O)c2c3c(cc4c5c(n1c24)[C@@]1(C)[C@@H](CC[C@H]2[C@](C)(/C=C/C=C(\C)C(=O)O)[C@@H](O)CC[C@@]21C)C5)C1=CC(C)(C)OC(C)(C)[C@H]1[C@@H]3O | inconclusive: 33.2 µM [cytotoxic, single point] | 
4 | O=C(c1ccccc1O)c1[nH]c(Cl)c(Cl)c1-n1c(C(=O)c2ccccc2O)cc(Cl)c1Cl | active: 2.35 µM | 
5 | C/C=C1/CN2CC[C@@]34c5ccccc5N(C)[C@@H]3[C@@H]2C[C@@H]1[C@H]4C(=O)OC | inconclusive: 26.4 µM [cytotoxic, single point] | 
6 | CC[C@@H]1CN2CCc3c([nH]c4cccc(OC)c34)[C@@H]2C[C@@H]1/C(=C\OC)C(=O)OC | active: 16.6 µM | 
7 | C/C=C/[C@@H]1[C@H]2C[C@@H](C)CC[C@@H]2C(C)=C[C@H]1C(=O)c1c(O)c(-c2ccc(O)cc2)c[nH]c1=O | inconclusive: 16.6 µM [cytotoxic, partial curve] | 
8 | c1ccc2nc3c(cc2c1)[nH]c1ccccc13 | inconclusive: 10.5 µM [cytotoxic, partial curve] | 
9 | CO[C@H]([C@@H](C)[C@H]1O[C@]1(C)C[C@H](C)/C=C/C=C(\C)[C@H]1O[C@@H](CC(=O)O)CC[C@@H]1C)[C@@H](C)O | active: 0.0148 µM | 
10 | CCN1C[C@]2(C)CC[C@H](O)[C@]34C1C(C[C@H]23)[C@@]12CC[C@H](CC14)[C@](O)(COC(=O)c1ccc(OC)c(OC)c1)[C@H]2O (stereo partly specified) | inconclusive: 23.5 µM [cytotoxic, single point] | 
11 | C/C=C1/CN2C3CC1C1=CCC(=O)N4c5ccccc5[C@@]3(C[C@@H]2C2=C[C@H]3C5CC6N(CC[C@@]67c6ccccc6N(C2=O)[C@@H]37)C/C5=C/C)[C@H]14 (stereo partly specified) | active: 20.9 µM | 
12 | COc1ccc2c(c1)[nH]c1c(C)nccc12 | active: 24.1 µM | 
13 | CC[C@H](C)[C@H]1NC(=O)[C@@H](NC(=O)C(C)[C@H](O)C(C)C)[C@@H](C)OC(=O)C2COC(=O)CNC(=O)/C=C\[C@]3(CO3)[C@@H](C)Oc3ccc(cc3)[C@H](NC1=O)C(=O)N(C)C(Cc1ccccc1)C(=O)NC(C(C)O)C(=O)N2 (stereo partly specified) (X3-T[d(aIle)][X4][ξNMeF][ξT][ξS]; ester 1-C; linker 3-6 via G) | inconclusive: 11.5 µM [cytotoxic, partial curve] | 
14 | C[C@]12CCC3[C@@H](CC[C@@H]4C[C@@H](O)CC[C@]34CO)[C@@]1(O)CC[C@@H]2C1=CC(=O)OC1 (stereo partly specified) | active: 1.48 µM | 
15 | C1=C2CCCN[C@H]2C2CC1[C@H]1CCCCN1C2 (stereo partly specified) | inconclusive: 33.2 µM [cytotoxic, single point] | 
16 | CN(C)Cc1c[nH]c2ccccc12 | inconclusive: 11.8 µM [cytotoxic, partial curve] | 

Arranged by count of non-hydrogen atoms (smallest number first): some entries from above.
Row | SMILES | Potency | activity change, negative = cytotoxicity
5 | C/C=C1/CN2CC[C@@]34c5ccccc5N(C)[C@@H]3[C@@H]2C[C@@H]1[C@H]4C(=O)OC | inconclusive: 26.4 µM [cytotoxic, single point] | 
11 | C/C=C1/CN2C3CC1C1=CCC(=O)N4c5ccccc5[C@@]3(C[C@@H]2C2=C[C@H]3C5CC6N(CC[C@@]67c6ccccc6N(C2=O)[C@@H]37)C/C5=C/C)[C@H]14 (stereo partly specified) | active: 20.9 µM | 
3 | C=C(C)[C@H]1C(=O)c2c3c(cc4c5c(n1c24)[C@@]1(C)[C@@H](CC[C@H]2[C@](C)(/C=C/C=C(\C)C(=O)O)[C@@H](O)CC[C@@]21C)C5)C1=CC(C)(C)OC(C)(C)[C@H]1[C@@H]3O | inconclusive: 33.2 µM [cytotoxic, single point] | 

Next part:

Row | SMILES | Potency | activity change, negative = cytotoxicity
17 | CO[C@H](c1ccccc1)[C@H]1NC(=O)C(C)NC(=O)C(C[C@@H](C)CO)N(C)C(=O)[C@@H](C(O)c2cn(C(C)(C)C3CO3)c3ccccc23)NC(=O)C(C(C)C=C(C)C)NC(=O)C(CC(C)C)N(C)C(=O)C(C(C)C)NC1=O (stereo partly specified) | inconclusive: 0.812 µM [cytotoxic, full curve] | 
18 | CC[C@@H]1CN2CC[C@@]3(O)C(=Nc4cccc(OC)c43)[C@@H]2C[C@@H]1/C(=C\OC)C(=O)OC | inconclusive: 23.5 µM [cytotoxic, single point] | 
19 | CNCCc1c[nH]c2ccccc12 | inconclusive: 20.9 µM [cytotoxic, single point] | 
20 | CCCC[C@@H]1CC[C@H]2CCCC(CCC)N12 (stereo partly specified) |  | inactive: -1.72%
21 | C=C[C@H]1CN2CCc3c([nH]c4cccc(OC)c34)[C@@H]2C[C@@H]1/C(=C\OC)C(=O)OC | active: 16.6 µM | 
22 | CC(C)CC1C(=O)O[C@H](C(C)C)C(=O)N(C)C(CC(C)C)C(=O)O[C@@H](C(C)C)C(=O)N(C)C(CC(C)C)C(=O)O[C@H](C(C)C)C(=O)N(C)C(CC(C)C)C(=O)O[C@@H](C(C)C)C(=O)N1C (stereo partly specified) | inconclusive: 9.35 µM [cytotoxic, partial curve] | 
23 | c1ccc2c3c([nH]c2c1)CNCC3 | inconclusive: 18.7 µM [cytotoxic, partial curve] | 
24 | CC[C@H]1CN2CCc3c([nH]c4cccc(OC)c34)[C@@H]2C[C@@H]1/C(=C\OC)C(=O)OC | inconclusive: 20.9 µM [cytotoxic, partial curve] | 
25 | C=CC(C)(C)[C@@]12C[C@H]3C(=O)N/C(=C/c4cnc[nH]4)C(=O)N3[C@@H]1Nc1ccccc12 |  | inactive: 3.62%
26 | COc1ccc2[nH]cc(CCN)c2c1 | inconclusive: 33.2 µM [cytotoxic, single point] | 
27 | CCC(=O)CCCCC[C@@H]1NC(=O)[C@H]2CCCCN2C(=O)[C@H]([C@@H](C)CC)NC(=O)[C@H](Cc2cn(OC)c3ccccc23)NC1=O | active: 1.05 µM | 
28 | CO[C@@H](/C=C/CC/C=C/C(=O)O)[C@@H](O)[C@H](C)/C=C(\C)[C@@H](O)[C@H](C)C(=O)CCCC1CC(=O)NC(=O)C1 |  | inactive: 0.0751%
29 | CC[C@]12C=CCN3CC[C@]4(C(=C(C(=O)OC)C1)Nc1ccccc14)[C@@H]32 | inconclusive: 33.2 µM [cytotoxic, single point] | 
30 | COc1ccc2c3c([nH]c2c1)C(C)=NCC3 | inconclusive: 33.2 µM [cytotoxic, partial curve, poor fit] | 
31 | CC=C1CN(C=O)[C@H]2C[C@@H]1[C@@H](C(=O)OC)[C@@]13CCOC21Nc1ccccc13 (stereo partly specified) |  | inactive: -10.1%
